## Library screen at single concentrations

The filed quantity is “Percent Effect” (%). How 0% and 100% were set is not recorded. Most values in the screen are low, and negative values occur. This is an unselected part of the compounds tested. Two or more numbers in one place are separate tests of the same structure; such repeats can differ widely.

Mtb cholesterol medium: 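Growth of Mycobacterium tuberculosis over 4 days (cholesterol / DPPC medium with tyloxapol); the read-out is not stated. Tested at 50 µM. Direction is inferred from retests: higher values go with more growth inhibition. About 69,000 compounds were tested under these conditions; 0.54% (about 370) showed 50% or more at least once.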
Mtb glucose medium: 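Phenotypic screen: M. tuberculosis growth, glucose 7H9 medium, 3 days; the read-out is not stated. Tested at 50 µM. Direction is inferred from retests: higher values go with more growth inhibition. Of about 69,000 compounds tested this way, about 760 (1.1%) reached 50% or more in at least one test.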

structure,Mtb cholesterol medium,Mtb glucose medium
Cn1ccc(C(=O)NCc2ccc(N3CCOCC3)nc2)cc1=O,2.944,-1.629
Cc1nc(CN(C)C2CCN(CC3CCC3)C2)no1 (stereo not shown),2.317,4.55
Cc1ncccc1-c1cc2cccnc2n1CCCNC(=O)C1CC1.Cl,5.697,25.27
CS(=O)(=O)c1ccc(CNC(=O)Nc2cn[nH]c2)cc1,-12.39,-50.72 and 0.6074
Cn1nnnc1SCCC(=O)NCC(C)(C)c1ccccc1F,-22.81,-15.62 and 0.4338
CN(C)Cc1cnc(C2CCN(C(=O)c3ccc(F)cc3)C2)[nH]1 (stereo not shown),-2.432 and -6.965,-18.97
CCc1cccc2cc(CN)c(=O)[nH]c12,2.547 and -14.09,-10.97
COc1cccc(CNC(Cc2cccs2)c2nc(C)c(C)s2)c1OC.Cl (stereo not shown),10.22,-5.434
CCN(CC)C(=O)[C@@H]1C[C@H](N)CN1c1nnc(-c2ccccc2)s1,-31.24,-7.165 and -27.09
Cc1cc(NC(=O)CCn2cncn2)no1,-20.58,-0.9752
O=C(Cc1ccc(S(=O)(=O)C(F)F)cc1)N1CCC1,4.213,6.286
COCCCN1CC2(CCCN(c3ncnc4[nH]cnc34)C2)CCC1=O (stereo not shown),-5.72,-11.99
COc1ncccc1C(=O)N1CC[C@]2(C[C@@H](Oc3cccnc3)CO2)C1.O=C(O)C(F)(F)F.O=C(O)C(F)(F)F,-2.462,3.474
CN(c1ccc(CNc2c(Cl)cccc2C#N)cc1)S(C)(=O)=O,-21.03,-29.33
COCCN(C(=O)c1nc(-c2ccco2)sc1C)C1CC1,1.913,-10.77
COC(=O)C1CCN(C(=O)Cn2nc(C)nc2-c2ccccc2)CC1,-2.037,-0.08977
[H][C@]12CC[C@]([H])(CN(C(=O)CSCC3CC3)C1)N(Cc1ccccn1)C2=O,-18.55,0.125 and -13.33
CCc1ncncc1C(=O)N1CCCN(Cc2ccc(C#N)cc2)CC1,-4.975,-2.81
O=C(NCc1cccc(-n2cncn2)c1)NCC(C1CC1)C1CC1,-8.398,0.4193 and 1.476
Cc1ccc(-c2cccc(N3CCC(NC4CCOCC4)CC3)c2)cc1,22.3,45.09
O=C(NCC1(c2ccc(F)cc2)CCC1)N1CCC2(C1)OCCO2,-3.412,10.94 and -3.419
CCS(=O)(=O)N1CCOC2(CCCN(c3ncc(F)cn3)C2)C1 (stereo not shown),-5.312,-5.948 and -2.084
CC(C)(O)CCc1ccc(C(=O)N2CCN(CC(F)(F)F)CC2)cc1,-15.63,-38.46
CCNC(=O)N1CCC(c2ccccc2)C1 (stereo not shown),31.03,19.42
CC(=O)N1CCCC2(CCN(c3nncs3)C2)C1 (stereo not shown),-8.376,-7.272
Cc1ccoc1-c1nnc(CNCC2CCCN2c2cccnn2)o1 (stereo not shown),-18.12,11.76
CC(C)OCCCNC(=O)C1CCCN(c2ccc3nncn3n2)C1 (stereo not shown),-9.687,-13.27
Cc1cc(NCCc2c(C)n[nH]c2C)nc(-c2cccnc2)n1,6.552,9.735
CC(C)c1nc(C2CCCN(C(=O)c3ccc4c(c3)COC4)C2)no1 (stereo not shown),2.362,-0.8845
COc1ccccc1CN1CCc2c(nc(-c3ccccn3)[nH]c2=O)C1,4.192,32.37
COCCN1C(=O)CCC12CCN(C(=O)NC(C)C)CC2,13.15,11.22
Cc1nnc2n1CC(CNCc1nc(-c3cccs3)no1)CC2 (stereo not shown),-14.83,-15.11
O=C(c1cc(Cl)c2c(c1)OCO2)N1CCN(c2ccccn2)CC1,-24.7,6.581 and -21.75
COc1cccc(CNc2cc(N3CCCC3CO)ncn2)n1 (stereo not shown),-15.09,7.182
c1cc2c(cc1CN1CCC(Cc3noc(C4CC4)n3)CC1)OCCO2,-23.54 and -9.435,-14.48
COc1ccc(NC2CCCN(Cc3cnc(N(C)C)s3)C2)cc1 (stereo not shown),7.497,0.6143 and 9.933
Cl.Cl.O[C@@H]1C[C@@](CNCc2ccc(Cl)cc2)(COc2cccnc2)C[C@@H]1O,-14.83,-9.598 and 14.04
O=C(c1cccnc1-n1cncn1)N1CCN(c2ccccc2)CC1,0.8752,0.3566 and -1.956
CSCC(C)(O)CNC(=O)c1cc(Br)ccc1Cl (stereo not shown),-31.93,0.8219 and -28.3
Cc1oc(C)c(C(=O)N2CCCN(c3nccs3)CC2)c1C,17.19,-5.82
Cc1cccn2c(CNC(C)CCn3cccn3)cnc12 (stereo not shown),-23.86,-19.01
C[C@H](O)CNc1cc(-c2cn[nH]c2)ncn1,-22.4,-23
O=C(CCN1CCCCC1c1cc2ccccc2[nH]1)N1CCOCC1 (stereo not shown),-25.34,3.813 and 23.18
CCOCC(=O)N(Cc1ccco1)c1ccc(OC)c(F)c1,1.159,1.23
Cc1cccc(CN2CCn3c(C(=O)N(C)C)cnc3C2)c1,4.492 and -6.744,2.936
c1cnc(N2CCOCC3(CNCCO3)C2)nc1 (stereo not shown),-31.25 and -10.46,-32.23
Cc1nn(C)cc1-c1ccnc(N2CCN(c3ccccc3)C(=O)C2)n1,5.437 and 1.251,-23.67
Cc1cc(C)cc(C2(C(=O)NC(C)Cn3ccnc3)CC2)c1 (stereo not shown),6.634,4.688
Cn1ccc(C(=O)N2CCC3(CC2)CC(Nc2cnccn2)CO3)n1 (stereo not shown),-20.49,-21.51
[H][C@@]12CN(C(=O)NC(C)C)C[C@]1([H])C(=O)N(Cc1cccc(C)c1)C2,-36.14,-48.23
CC(C)c1nnc2ccc(N3CCC(C(=O)NC4CC4)CC3)nn12,3.701,4.732
O=C1NCCCCC1Sc1n[nH]c(=O)n1C1CC1 (stereo not shown),-19.65,-1.044 and -4.591
COc1ccc(C(N)c2cccc(S(C)(=O)=O)c2)cc1 (stereo not shown),-10.64,-12.55
CC(C)N(CCCNC(=O)C1CC(=O)N(C)C1)S(C)(=O)=O (stereo not shown),-13.22,-26.8
CN(C)S(=O)(=O)NC(=O)CC(c1ccccc1)C(F)(F)F (stereo not shown),-19.05,-27.21
O=C(O)C(F)(F)F.O=C(O)C(F)(F)F.c1cnc(NCc2ncn3c2CN(Cc2cccnc2)CCC3)nc1,-6.918 and -16.5,18.41
Cc1nn(C(C)C)c2cnn(CC(=O)N3CCN(C)CC3)c12,12.8,6.078
COc1ccc(-c2csc(-c3cccc(C(=O)O)c3)n2)cc1OC,7.055,1.918 and -30.89
O=C(c1ccoc1)N1CCn2cnc(COCC3CC3)c2C1,-21.39 and -27.55,-33.96
CC(C)Oc1ccc(C(=O)Cn2cnnc2[S+](C)[O-])cc1 (stereo not shown),1.128,-44.28 and -15.55
[H][C@@]12CN(Cc3ccoc3)C[C@]1([H])OCCN2CC1CCCO1 (stereo partly shown),-17.1,0.3631 and -4.447
Cc1ccc2c(c1)C1(CCNCC1)CC2NC(C)C.Cl.Cl (stereo not shown),-16.7,-3.223 and 1.785
NC(=O)CCSCc1ccc(Br)c(F)c1,5.305,44.56
CC(C)N(C)CC(=O)N1CCCC(c2ccc(C(=O)O)cc2)C1 (stereo not shown),0.6022,-4.595
Cc1cc(C)n2nc(C(=O)N3CCCC4(CCOC4)C3)cc2n1 (stereo not shown),-5.253,7.147 and 7.802
Cc1n[nH]c(C)c1NC(=O)CN1CCc2c(nc(C3CC3)n2C)C1,-28.1,-33.72
CCc1nn(-c2cc(Oc3cc(C)ccc3C)nc(C)n2)c(N)c1C#N,-19.63,-7.805 and 0.1637
COCC(=O)N1CCC(c2csc(NC(C)=O)n2)CC1,3.282,5.888
O=C(O)C(F)(F)F.[H][C@]12CCN(S(=O)(=O)C3CC3)CC[C@@]1([H])S(=O)(=O)CCN2CC(C)C,10.54,11.95 and -0.08703
NC(=O)NCC1CCCCN1C(=O)c1ccc(Cl)s1 (stereo not shown),6.931,29.63
Cc1ccc(OC2(C(=O)N(C)Cc3ccoc3)CCNCC2)cc1,-6.057,-11.19
O=C(O)C(F)(F)F.[H][C@@]12CCN(C(=O)c3cnn(C)c3)[C@@]1([H])CCN2c1ncc(F)cn1,-31.53,-25.29 and -3.649
Clc1ccccc1-c1nc(CNCCn2cccn2)cs1,-17.22,-14.71
NCC1CCCCN1Cc1cc(O)c2cccc(F)c2n1 (stereo not shown),-3.991,-9.881 and 5.973
COc1cccc(Cc2nc3c([nH]2)CC(C)(C)CNC3=O)c1OC,4.462,4.874
CCc1ccc(NC(=O)CCN2CC(n3nc(C)cc3C)C2)cc1,4.816,35.07
[H][C@@]12CCN(Cc3cnn(C)c3)C[C@]1([H])[C@H](C(=O)NCCOC)CCO2,-22.64,12.71
COc1cc(C2C3=C(COC3=O)Nc3[nH]nc(C)c32)cc(Br)c1O (stereo not shown),7.884 and -4.911,-5.624
CN(Cc1cnn(C)c1)c1nccc(-c2cc(C(=O)O)ccn2)n1,-39.08,-7.41 and -1.364
C1CC1c1nsc(N2CCN(C3CC3)CC2)n1,-12.9,-0.367 and 16.95

The last 9 entries again:

O=C(O)C(F)(F)F.[H][C@@]12CCN(C(=O)c3cnn(C)c3)[C@@]1([H])CCN2c1ncc(F)cn1 read Mtb cholesterol medium: -31.53%; Mtb glucose medium: -25.29% and -3.649%.
Clc1ccccc1-c1nc(CNCCn2cccn2)cs1 read Mtb cholesterol medium: -17.22%; Mtb glucose medium: -14.71%.
NCC1CCCCN1Cc1cc(O)c2cccc(F)c2n1 (stereo not shown) read Mtb cholesterol medium: -3.991%; Mtb glucose medium: -9.881% and 5.973%.
COc1cccc(Cc2nc3c([nH]2)CC(C)(C)CNC3=O)c1OC read Mtb cholesterol medium: 4.462%; Mtb glucose medium: 4.874%.
CCc1ccc(NC(=O)CCN2CC(n3nc(C)cc3C)C2)cc1 read Mtb cholesterol medium: 4.816%; Mtb glucose medium: 35.07%.
[H][C@@]12CCN(Cc3cnn(C)c3)C[C@]1([H])[C@H](C(=O)NCCOC)CCO2 read Mtb cholesterol medium: -22.64%; Mtb glucose medium: 12.71%.
COc1cc(C2C3=C(COC3=O)Nc3[nH]nc(C)c32)cc(Br)c1O (stereo not shown) read Mtb cholesterol medium: 7.884% and -4.911%; Mtb glucose medium: -5.624%.
CN(Cc1cnn(C)c1)c1nccc(-c2cc(C(=O)O)ccn2)n1 read Mtb cholesterol medium: -39.08%; Mtb glucose medium: -7.41% and -1.364%.
C1CC1c1nsc(N2CCN(C3CC3)CC2)n1 read Mtb cholesterol medium: -12.9%; Mtb glucose medium: -0.367% and 16.95%.

Data taken from ChEMBL document CHEMBL3988442, “University of Dundee, Small-Polar-MMV Screening Library” (2021).